Literature values, collected in patent US12004868B2, “Liposomal mitigation of drug-induced inhibition of the cardiac IKr channel” (Signpath Pharma, Inc., priority 2011, dated 2024).

Settings: human, in vivo; cited from earlier work

In the case of `CCCCc1oc2ccccc2c1C(=O)c1cc(I)c(OCCN(CC)CC)c(I)c1` [Amiodarone], the “increase in QT intervals” value is given as 10%.
